{"sequences": {"note": "Amino acid sequences for entries named in this document (tags omitted). Residues count along the entry.", "UniProt P30405, residues 30-207": "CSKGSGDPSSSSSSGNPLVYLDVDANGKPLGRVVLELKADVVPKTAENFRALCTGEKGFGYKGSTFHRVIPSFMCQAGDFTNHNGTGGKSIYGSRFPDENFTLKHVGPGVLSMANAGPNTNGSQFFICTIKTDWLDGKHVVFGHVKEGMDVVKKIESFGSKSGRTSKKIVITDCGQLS"}, "source": "patent US20170211072A1", "binders": {"B1": {"name": "purified p53Ψ (aa 102-243) (protein)", "chain": "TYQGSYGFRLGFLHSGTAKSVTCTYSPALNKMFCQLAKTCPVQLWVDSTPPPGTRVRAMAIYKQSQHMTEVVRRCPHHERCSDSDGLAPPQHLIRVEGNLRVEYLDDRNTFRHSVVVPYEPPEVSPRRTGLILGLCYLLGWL"}}, "molecular_target": "purified CypD-GST (UniProt P30405)", "test": "GST pull-down with purified proteins", "note": "Results are given in words; binding and its absence hold for the method and conditions named. Binding seen in cells or lysates may run through a third protein. Some results given as binding are weak or reduced against the parent protein; the word gives no strength."}
{"binder": "B1", "values": [{"measurement": "binding", "result": "binds"}]}
